Experimental data: PubChem BioAssay AID1508597 (Cure First, 2020)
Shown is a random part of the about 2,100 reagents, in one setting of the screen. 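Calls flag viability under 80% in either arm, not effects specific to rucaparib; the reference for percent is not stated.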 The record does not give: the 100% reference.

- Aim: 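Knock-downs altering ovarian cancer cell survival with or without PARP inhibitor rucaparib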 (primary screen)
- Cell system: human ovarian carcinoma lines grown from tumours: OCI-P5x (papillary serous) and OCI-C5x (clear cell)
- Reagents: siRNA pool against human genes, 1.25 pmol siRNA per well
- Time to read-out: 72 h or 96 h, depending on the cell culture
- Treatment: rucaparib 20 µM (about IC30) or vehicle, present until read-out
- Rucaparib or vehicle: Vehicle
- Cell line: OCI-C5x (clear cell)
- Detection: 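ATP luminescence measured at 72 or 96 h according to the culture, then normalised and expressed as percent viability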
- Direction: viability, normalised: higher = more viable cells remaining
- Hit rule: 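Active when normalised viability falls below 80 percent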
- Meaning of the calls: active = viability under 80%; inactive = viability 80% or more

RPS9 (GeneID 6203), technical replicate 1 scored viability, normalised (%) = 25.2; active. For RPS9 (GeneID 6203), technical replicate 2 the deposit lists viability, normalised (%) = 37.9; active. RPS9 (GeneID 6203), technical replicate 3 scored viability, normalised (%) = 35.7; active. ZDHHC17 (GeneID 23390), technical replicate 1 scored viability, normalised (%) = 42.1; active. For ZDHHC17 (GeneID 23390), technical replicate 2, the values are viability, normalised (%) = 38.7; active. ZDHHC17 (GeneID 23390), technical replicate 3 scored viability, normalised (%) = 47.1; active.

RBKS (GeneID 64080), technical replicate 1 showed viability, normalised (%) = 38.3; active. For RBKS (GeneID 64080), technical replicate 2 the deposit lists viability, normalised (%) = 31.4; active. For RBKS (GeneID 64080), technical replicate 3, the values are viability, normalised (%) = 46.6; active.

Reformatted: results already given.
| target | technical replicate | viability, normalised (%) | call |
| --- | --- | --- | --- |
| ZDHHC17 (GeneID 23390) | 1 | 42.1 | active |
| ZDHHC17 (GeneID 23390) | 2 | 38.7 | active |
| ZDHHC17 (GeneID 23390) | 3 | 47.1 | active |

Continued.
ADAM9 (GeneID 8754), technical replicate 1 showed viability, normalised (%) = 27.8; active. ADAM9 (GeneID 8754), technical replicate 2 showed viability, normalised (%) = 39.4; active. ADAM9 (GeneID 8754), technical replicate 3 gave viability, normalised (%) = 31.4; active. ARID5B (GeneID 84159), technical replicate 1 gave viability, normalised (%) = 26; active. For ARID5B (GeneID 84159), technical replicate 2, the values are viability, normalised (%) = 26.6; active. For ARID5B (GeneID 84159), technical replicate 3, the values are viability, normalised (%) = 20.2; active.

For SOX6 (GeneID 55553), technical replicate 1, the values are viability, normalised (%) = 56.5; active. SOX6 (GeneID 55553), technical replicate 2 scored viability, normalised (%) = 56.9; active. SOX6 (GeneID 55553), technical replicate 3 scored viability, normalised (%) = 50.1; active. DDX28 (GeneID 55794), technical replicate 1 gave viability, normalised (%) = 31.9; active. DDX28 (GeneID 55794), technical replicate 2 gave viability, normalised (%) = 45; active. For DDX28 (GeneID 55794), technical replicate 3 the deposit lists viability, normalised (%) = 49.9; active.
